Laboratory results: PubChem BioAssay AID504784 (Drosophila RNAi Screening Center, 2011)
Purpose: 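Search for regulators of lipid droplet storage in oleate-fed fly cells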 (primary screen). Cell system: Drosophila Kc167 embryonic cells. Reagent: long dsRNA against Drosophila genes, about 250 ng dsRNA per well. Time to read-out: 4 days. Conditions: cells fed 400 µM oleic acid bound to BSA. Measurement: 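Cells imaged and segmented; ratio of lipid droplet area to nuclear area, log-transformed, then normalised as a B-score over the screen; higher means more stored lipid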. Reading the numbers: droplet/nuclear area B-score: higher = more stored lipid (overstorage).
In all, the deposit lists about 17,000 reagents; this is an unselected part of those with a known target gene and a result. 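Each column is one replicate's B-score; the combined score over replicates was not deposited, so single values may mislead.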

Gene	DRSC id	droplet/nuclear area B-score, replicate 1	droplet/nuclear area B-score, replicate 2	droplet/nuclear area B-score, replicate 3
CG10126	DRSC14191	-0.00547	6.04	
CG16935	DRSC06638	-0.0539	-0.307	
CG32801	DRSC17964	-0.925	-0.0647	
CG3777	DRSC18489	-1.23	-0.0853	
CG2070	DRSC06814	2.4	-1.79	
eEF1alpha2	DRSC14079	-0.736	-0.0658	
eEF1alpha2	DRSC16658	-2.23	0.0829	
CG10581	DRSC11623	-0.588	0.988	
CG11263	DRSC09832	0.0189	0.546	
dpr13	DRSC06160	-0.881		
dpr13	DRSC06464	-2.05	-0.9	
TwdlC	DRSC14749	-3.31	0.104	
slow	DRSC08589	-1.03	1.85	
slow	DRSC08590	0.332	-0.58	
Hem	DRSC11865	1.13	0.749	-0.599
pigs	DRSC17472	-0.917	1.23	
pigs	DRSC18334	-0.495	-0.00505	
pigs	DRSC18335	1.09	-0.754	
Cog6	DRSC06806	0.0703	-0.796	
Set8	DRSC15473	0.0451	0.468	
fbp	DRSC02077	-0.663	-0.0651	
l(1)G0196	DRSC20591	-0.788	-0.537	
l(1)G0196	DRSC20628	-1.81	-0.859	
l(1)G0196	DRSC20629	0.0174	2.11	
Cdk9	DRSC04601	1.91	2.35	
Polr2I	DRSC16832	5.38	0.572	
CG31538	DRSC12059	0.925	2.65	
CG5890	DRSC15909	-1.33	0.0197	
eRF1	DRSC11779	-0.029	1.8	0.29
Naxd	DRSC09722	0.361	0.0678	0.42
Hrs	DRSC00549	-0.713	0.416	
PIG-B	DRSC08216	-0.827	1.43	0.397
PIG-B	DRSC22598	0.805	-0.183	
Mnr	DRSC20549	-0.506	0.24	
Mnr	DRSC20550	1.14	0.61	-1.21
Mnr	DRSC22441	0.138	-0.0434	
CG6443	DRSC02958	1.07	2.98	
pit	DRSC17025	0.498	0.045	
pit	DRSC22798	-0.049	-0.525	
CG15651	DRSC04242	1.72	-0.0535	
Toll-4	DRSC03458	0.35	-0.111	
CG7342	DRSC16230	1.05	-4.4	
CG9101	DRSC20152	1.03	-1.31	
CG7432	DRSC16243	-0.771	-0.658	
CG13045	DRSC09926	-0.477	-0.736	

Next part (8 carried over from the part before).
Gene	DRSC id	droplet/nuclear area B-score, replicate 1	droplet/nuclear area B-score, replicate 2	droplet/nuclear area B-score, replicate 3
pit	DRSC17025	0.498	0.045	
pit	DRSC22798	-0.049	-0.525	
CG15651	DRSC04242	1.72	-0.0535	
Toll-4	DRSC03458	0.35	-0.111	
CG7342	DRSC16230	1.05	-4.4	
CG9101	DRSC20152	1.03	-1.31	
CG7432	DRSC16243	-0.771	-0.658	
CG13045	DRSC09926	-0.477	-0.736	
CG11437	DRSC11659	0.742	-2.29	
CG40439	DRSC22707	0.301	0.323	
rost	DRSC03603	1.77	0.291	
Vps28	DRSC06168	-0.334	1.85	
Nrx-1	DRSC16184	0.897	1.11	
Cnot4	DRSC02830	0.851	1.32	
Cnot4	DRSC02831	1.61	-2.06	
CG30479	DRSC06735	-1.1	0.301	
CG12768	DRSC11680	-0.353	2.65	
CG12768	DRSC23215	0.794	0.0398	
row	DRSC07076	4.37		
row	DRSC07077	0.65	0.562	
Lcch3	DRSC20257	-0.691	2.29	-1.09
Lcch3	DRSC22175	-0.636	0.321	
Neurl4	DRSC10638	0.482	-1.59	1.03
CG32625	DRSC18994	1.62	0.262	
nom	DRSC16389	-0.14	-0.968	
Rap1	DRSC08686	0.0593	0.568	
CG13075	DRSC09958	-0.0634	-0.617	
CG14471 (retired record)	DRSC04865	0.522	0.27	
ppk23	DRSC20110	1.36	-0.0459	
RpL30	DRSC02087	4.5	7.16	
ttk	DRSC14078	-1.54	-1.96	
ttk	DRSC17091	2.64	-0.613	
obst-H	DRSC10935	-0.56	-0.505	
obst-H	DRSC10940	-0.479	-2.11	
mbt	DRSC20348	5.98		
mbt	DRSC23020	-0.85	-3.4	
Ocrl	DRSC18576	0.945		
CG10307	DRSC04057	0.174	-0.0196	
Vti1a	DRSC08563	-0.0246	-0.293	
CG8646	DRSC07230	-1.04	-1.12	
Syx13	DRSC09836	-0.513	-0.408	
CG11811	DRSC09862	-0.401	-0.119	
CG5021	DRSC10469	0.0472	-1.07	
Arp6	DRSC19326	2.89	-0.0622	-0.221
CCKLR-17D3	DRSC20015	-1.55	-0.389	
CCKLR-17D3	DRSC20017	0.938	0.808	
